No constants are given. Whether binding was seen depends on the method and setting. Some results given as binding are weak or reduced against the parent protein; the word gives no strength. Tags and fused reporters may be left off the sequences shown.
T1: S. cerevisiae Prp19 amino acids 146–503 fused to the Gal4 DNA-binding domain (S. cerevisiae) (UniProt P32523)
T1 sequence: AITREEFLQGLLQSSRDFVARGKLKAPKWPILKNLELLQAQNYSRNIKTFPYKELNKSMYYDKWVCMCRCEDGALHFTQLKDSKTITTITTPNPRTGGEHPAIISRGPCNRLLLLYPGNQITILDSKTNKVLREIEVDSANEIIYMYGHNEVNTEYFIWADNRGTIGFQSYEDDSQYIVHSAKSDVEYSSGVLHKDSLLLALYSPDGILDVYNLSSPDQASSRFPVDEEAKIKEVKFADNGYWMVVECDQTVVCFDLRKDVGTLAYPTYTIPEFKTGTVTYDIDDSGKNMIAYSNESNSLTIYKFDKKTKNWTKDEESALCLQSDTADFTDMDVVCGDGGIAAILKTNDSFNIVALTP

B1: S. cerevisiae Mih1 ORF fused to the Gal4 activation domain (protein, UniProt P23748 1-554)
chain: MNNIFHGTEDECANEDVLSFQKISLKSPFGKKKNIFRNVQTFFKSKSKHSNVDDDLINKENLAFDKSPLLTNHRSKEIDGPSPNIKQLGHRDELDENENENDDIVLSMHFASQTLQSPTRNSSRRSLTNNRDNDLLSRIKYPGSPQRSSSFSRSRSLSRKPSMNSSSNSSRRVQRQDGKIPRSSRKSSQKFSNITQNTLNFTSASSSPLAPNSVGVKCFESCLAKTQIPYYYDDRNSNDFFPRISPETLKNILQNNMCESFYNSCRIIDCRFEYEYTGGHIINSVNIHSRDELEYEFIHKVLHSDTSNNNTLPTLLIIHCEFSSHRGPSLASHLRNCDRIINQDHYPKLFYPDILILDGGYKAVFDNFPELCYPRQYVGMNSQENLLNCEQEMDKFRRESKRFATKNNSFRKLASPSNPNFFYRDSHQSSTTMASSALSFRFEPPPKLSLNHRRVSSGSSLNSSESTGDENFFPILSKSSMSSNSNLSTSHMLLMDGLDTPSYFSFEDERGNHQQVSGDEEQDGDFTFVGSDREDLPRPARRSLFPSLETEDKK
B2: S. cerevisiae Prp17/Cdc40 ORF fused to the Gal4 activation domain (protein, UniProt P40968 1-455)
chain: MGLVDGYDTSSDSDLNFDEGKSVHEKKNGNLHEDTSYEPSSNNIHKRKSHFTKSELKRRRKTRKGDGPWGSWSSSDDETSQASETQKEDQDIFVHALAEDNLDSEQIEVEEVSHFYGKSEKDYQGRGYLYPPNDVDVDLREERISFRCYLPKKVIRNYPGHPEGTTALKFLPKTGHLILSGGNDHTIKIWDFYHDYECLRDFQGHNKPIKALRFTEDCQSFLSSSFDRSVKIWDTETGKVKTRLHLNSTPADVESRPTNPHEFIVGLSNSKILHYDDRVSENQGLVQTYDHHLSSILALKYFPDGSKFISSSEDKTVRIWENQINVPIKQISDTAQHSMPFLNVHPSQNYFCAQSMDNRIYSFSLKPKYKRHPKKIFKGHSSAGYGISLAFSGDGRYICSGDSKSRLFTWDWNTSRLLNNIKIPGNKPITQVDWHPQETSKVICSGAAGKIYVCD
B3: S. cerevisiae Urn1 ORF fused to the Gal4 activation domain (protein, UniProt Q06525 1-465)
chain: MRGEWQEFKTPAGKKYYYNKNTKQSRWEKPNLKKGSNLESNAKESQTERKPTFSLELVNGWHLIIYNDGTKLYFNDDSKEFKNDISQEDDSRCRSLIESLDKEKLVLLIGVARGYTMREEDIDKILESCNEEIHLFKRNQDEVERKDEISEEAGDVKSPLQESHTGLVSGYGSSSGEEDEEEDEEEDEENEEQIVNQDISIIDDLNRIDTDDIDERNIFFELFDRYKLDKFSTWSLQSKKIENDPDFYKIRDDTVRESLFEEWCGERSGNATAEESDSEDNSEDDSEVLEPTKYHYLAQIVANAGTIAPDTIPQDIRKQQKALYKAYKIKEYIPSKRDQDKFVSQLLFYYKTFDLEQRKEIFCDCLRDHERDFTGAVESLRQDKELIDRWQTLLKAPADSSSIEDILLSIEHRCCVSPIVVTEPRYYVVGILEKTVVWVRWLAAEVGPSSRFTPVGAGNEPINPE
B4: S. cerevisiae Cwc2 ORF fused to the Gal4 activation domain (protein, UniProt Q12046 1-339)
chain: MTSWRDKSAKVQVKESELPSSIPAQTGLTFNIWYNKWSQGFAGNTRFVSPFALQPQLHSGKTRGDNDGQLFFCLFFAKGMCCLGPKCEYLHHIPDEEDIGKLALRTEVLDCFGREKFADYREDMGGIGSFRKKNKTLYVGGIDGALNSKHLKPAQIESRIRFVFSRLGDIDRIRYVESKNCGFVKFKYQANAEFAKEAMSNQTLLLPSDKEWDDRREGTGLLVKWANEDPDPAAQKRLQEELKLESLNMMVHLINNNTNSAGTEVNNKNNERLDRTFPEASVDNVKKRLLPLDNGMESDDFIEKLKKVKKNISRENISSKPSVGKLGGPLLDYLSSDED
B5: S. cerevisiae Ufd4 ORF fused to the Gal4 activation domain (protein, UniProt P33202 1-1483)
chain: MSENNSHNLDEHESHSENSDYMMDTQVEDDYDEDGHVQGEYSYYPDEDEDEHMLSSVGSFEADDGEDDDNDYHHEDDSGLLYGYHRTQNGSDEDRNEEEDGLERSHDNNEFGSNPLHLPDILETFAQRLEQRRQTSEGLGQHPVGRTLPEILSMIGGRMERSAESSARNERISKLIENTGNASEDPYIAMESLKELSENILMMNQMVVDRIIPMETLIGNIAAILSDKILREELELQMQACRCMYNLFEVCPESISIAVDEHVIPILQGKLVEISYIDLAEQVLETVEYISRVHGRDILKTGQLSIYVQFFDFLTIHAQRKAIAIVSNACSSIRTDDFKTIVEVLPTLKPIFSNATDQPILTRLVNAMYGICGALHGVDKFETLFSLDLIERIVQLVSIQDTPLENKLKCLDILTVLAMSSDVLSRELREKTDIVDMATRSFQHYSKSPNAGLHETLIYVPNSLLISISRFIVVLFPPEDERILSADKYTGNSDRGVISNQEKFDSLVQCLIPILVEIYTNAADFDVRRYVLIALLRVVSCINNSTAKAINDQLIKLIGSILAQKETASNANGTYSSEAGTLLVGGLSLLDLICKKFSELFFPSIKREGIFDLVKDLSVDFNNIDLKEDGNENISLSDEEGDLHSSIEECDEGDEEYDYEFTDMEIPDSVKPKKISIHIFRTLSLAYIKNKGVNLVNRVLSQMNVEQEAITEELHQIEGVVSILENPSTPDKTEEDWKGIWSVLKKCIFHEDFDVSGFEFTSTGLASSITKRITSSTVSHFILAKSFLEVFEDCIDRFLEILQSALTRLENFSIVDCGLHDGGGVSSLAKEIKIKLVYDGDASKDNIGTDLSSTIVSVHCIASFTSLNEFLRHRMVRMRFLNSLIPNLTSSSTEADREEEENCLDHMRKKNFDFFYDNEKVDMESTVFGVIFNTFVRRNRDLKTLWDDTHTIKFCKSLEGNNRESEAAEEANEGKKLRDFYKKREFAQVDTGSSADILTLLDFLHSCGVKSDSFINSKLSAKLARQLDEPLVVASGALPDWSLFLTRRFPFLFPFDTRMLFLQCTSFGYGRLIQLWKNKSKGSKDLRNDEALQQLGRITRRKLRISRKTIFATGLKILSKYGSSPDVLEIEYQEEAGTGLGPTLEFYSVVSKYFARKSLNMWRCNSYSYRSEMDVDTTDDYITTLLFPEPLNPFSNNEKVIELFGYLGTFVARSLLDNRILDFRFSKVFFELLHRMSTPNVTTVPSDVETCLLMIELVDPLLAKSLKYIVANKDDNMTLESLSLTFTVPGNDDIELIPGGCNKSLNSSNVEEYIHGVIDQILGKGIEKQLKAFIEGFSKVFSYERMLILFPDELVDIFGRVEEDWSMATLYTNLNAEHGYTMDSSIIHDFISIISAFGKHERRLFLQFLTGSPKLPIGGFKSLNPKFTVVLKHAEDGLTADEYLPSVMTCANYLKLPKYTSKDIMRSRLCQAIEEGAGAFLLS
B6: S. cerevisiae Uba3 ORF fused to the Gal4 activation domain (protein, UniProt Q99344 1-299)
chain: MDCKILVLGAGGLGCEILKNLTMLSFVKQVHIVDIDTIELTNLNRQFLFCDKDIGKPKAQVAAQYVNTRFPQLEVVAHVQDLTTLPPSFYKDFQFIISGLDAIEPRRFINETLVKLTLESNYEICIPFIDGGTEGLKGHVKTIIPGITACWECSIDTLPSQQDTVPMCTIANNPRCIEHVVEYVSTIQYPDLNIESTADMEFLLEKCCERAAQFSISTEKLSTSFILGIIKSIIPSVSTTNAMVAATCCTQMVKIYNDLIDLENGNNFTLINCSEGCFMYSFKFERLPDCTVCSNSNSN
B7: S. cerevisiae YOR314w ORF fused to the Gal4 activation domain (protein, UniProt Q12506 1-109)
chain: MTMIRFCGARQSAIISNASDAAAGTNKKRILNPLESLCLNDRIDEHRCKEVQLSSLRSLLYAMILNRTIGSETGVFSFLLFSFRYFGEERDLFYCFFSVFLLNITYLLD
B8: S. cerevisiae YPL257w ORF fused to the Gal4 activation domain (protein, UniProt Q08974 1-193)
chain: MTAHANERISDVSPSARGSSSESKYDKLCRVLFFIAITKSSFTPEHILYKHSIFTDKPILADIVTFMYAAFVSIGWFLIWGERAYRTQEMGQPPMYSNINYHLLSFKKRHPKKFTCALWLVFFLAYTVLTVLIWLVQLIFRKGNVFQMLLQLIILDIAIALVNVAIAFTFEIYLSQKAAIEIRDEGLNNLDTA

target: T1, S. cerevisiae Prp19 amino acids 146–503 fused to the Gal4 DNA-binding domain (S. cerevisiae); assay: two-hybrid; genome-wide screen in duplicate; bait ScPrp19(146–503) fused to the Gal4 DNA-binding domain against an array of ~6000 yeast strains each expressing a S. cerevisiae ORF fused to the Gal4 activation domain

binding | Binder
binds | B1
binds | B2
binds | B3
binds | B4
binds | B5
binds | B6
binds | B7
binds | B8

Reference: PMC3046128, “Systematic Two-Hybrid and Comparative Proteomic Analyses Reveal Novel Yeast Pre-mRNA Splicing Factors Connected to Prp19” (PLoS ONE, 2011)
